The values below come from patent publication US20150065417 (published 2015).

This data set can be described thus: peptide synthesis. The conditions noted are these: purification step.

Consider Micafungin sodium, for which the “final HPLC purity” value runs as follows: (sodium, run 1) 99.88%; (sodium, run 2) 96.29%; (run 1) 99.00%; (run 2) 96.17%; (run 3) 99.40%; (run 4) 96.16%. For the same substance, the “final HPLC purity” value is 99.79% (run 5), 96.29% (run 6) and 99.88% (run 7). Also, the step yield was found to be 82.7% (sodium); 93% (run 1); 91% (run 2); 93.9% (run 3); 86.1% (run 4); 91.1% (run 5). For the same substance, the step yield is, setting by setting: (run 6) 82.1%; (run 7) 88.5%.
